Results deposited as PubChem BioAssay AID743454 (Peter MacCallum Cancer Centre, 2014)

- Aim: 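Knock-downs lowering viability or raising caspase 3/7 activity in vorinostat-treated resistant cells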 (primary screen)
- System: human HCT116-VR colon cancer cells, selected for vorinostat resistance
- Reagent: siRNA pool against human genes, 40 nM siRNA pool
- Timing: vorinostat for 24 h, read-out about 72 h after transfection
- Challenge: vorinostat at 2.5 µM final
- Measured: 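Cell viability by CellTiter-Fluor and caspase 3/7 activity by luminescence, each scaled to mock wells per plate, duplicates averaged, then robust z-scored over all plates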
- Direction: viability robust z-score: higher = more viable cells than screen typical; caspase robust z-score: higher = more caspase 3/7 activity than screen typical
- Hit rule: 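a knock-down is a hit when classed RV1 or RV2 for lowered viability, or CA1 or CA2 for caspase activation; those lethal without drug were dropped; hits were retested singly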
The deposit covers about 18,000 reagents; shown is an unselected part. 450 of all reagents (2.5%) count as active. 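Single biological run; no consistent viability z cut-off exists, so the class columns, not z-scores, define the calls.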 A number with no mark means an inactive call. Reagent sequences are not shown.

The first 2 entries as a preview:
C8G (complement C8 gamma chain) | viability hit class = no change; caspase hit class = no change; viability robust z-score = 0.2; caspase robust z-score = -0.34
SAMD12 (sterile alpha motif domain containing 12) | viability hit class = no change; caspase hit class = no change; viability robust z-score = 1.64; caspase robust z-score = -0.66

The list itself, from the start:
C8G (complement C8 gamma chain) | viability hit class = no change; caspase hit class = no change; viability robust z-score = 0.2; caspase robust z-score = -0.34
SAMD12 (sterile alpha motif domain containing 12) | viability hit class = no change; caspase hit class = no change; viability robust z-score = 1.64; caspase robust z-score = -0.66
FOXRED2 (FAD dependent oxidoreductase domain containing 2) | viability hit class = no change; caspase hit class = no change; viability robust z-score = -0.03; caspase robust z-score = -0.32
PNKD (PNKD metallo-beta-lactamase domain containing) | viability hit class = no change; caspase hit class = no change; viability robust z-score = -1.19; caspase robust z-score = 0.02
ADH1B (alcohol dehydrogenase 1B (class I), beta polypeptide) | viability hit class = no change; caspase hit class = no change; viability robust z-score = 1.71; caspase robust z-score = -0.14
LRAT (lecithin retinol acyltransferase) | viability hit class = no change; caspase hit class = no change; viability robust z-score = -0.3; caspase robust z-score = -0.75
SPINK8 (serine peptidase inhibitor Kazal type 8 (putative)) | viability hit class = no change; caspase hit class = no change; viability robust z-score = 1.18; caspase robust z-score = 0.94
GRM8 (glutamate metabotropic receptor 8) | viability hit class = no change; caspase hit class = no change; viability robust z-score = 0.57; caspase robust z-score = -0.5
BMP6 (bone morphogenetic protein 6) | viability hit class = no change; caspase hit class = no change; viability robust z-score = 0.76; caspase robust z-score = -0.4
WDR46 (WD repeat domain 46) | viability hit class = no change; caspase hit class = no change; viability robust z-score = -2.38; caspase robust z-score = -0.05
CLCN7 (Cl-/H+ antiporter 7) | viability hit class = no change; caspase hit class = no change; viability robust z-score = -1.82; caspase robust z-score = 0.84
TOMM40 (translocase of outer mitochondrial membrane 40) | viability hit class = no change; caspase hit class = no change; viability robust z-score = -0.26; caspase robust z-score = -0.64
B4GALNT2 | viability hit class = no change; caspase hit class = no change; viability robust z-score = -0.73; caspase robust z-score = -0.86
PAFAH2 (platelet activating factor acetylhydrolase 2) | viability hit class = no change; caspase hit class = no change; viability robust z-score = 0.78; caspase robust z-score = -0.13
NPAS3 (neuronal PAS domain protein 3) | viability hit class = no change; caspase hit class = no change; viability robust z-score = 0.04; caspase robust z-score = -0.46
IL1RAPL1 (interleukin 1 receptor accessory protein like 1) | viability hit class = no change; caspase hit class = no change; viability robust z-score = 0.62; caspase robust z-score = -0.94
PCYOX1 (prenylcysteine oxidase 1) | viability hit class = no change; caspase hit class = no change; viability robust z-score = 1.62; caspase robust z-score = -0.7
ADIPOR1 (adiponectin receptor 1) | viability hit class = no change; caspase hit class = no change; viability robust z-score = -0.65; caspase robust z-score = 0.94
CXorf58 (chromosome X open reading frame 58) | viability hit class = no change; caspase hit class = no change; viability robust z-score = -1; caspase robust z-score = -1.49
TBX2 (T-box transcription factor 2) | viability hit class = no change; caspase hit class = no change; viability robust z-score = 0.3; caspase robust z-score = -0.44
TEX261 (testis expressed 261) | viability hit class = no change; caspase hit class = no change; viability robust z-score = -0.44; caspase robust z-score = 3.72
